Experimental data from patent publication US20130123206A1, “TREATMENT OF METABOLIC SYNDROME AND INSULIN RESISTANCE WITH CITRUS FLAVANONES” (priority 2010, published 2013).
For at least one compound, name, drawing or mass did not settle the structure.

Tested on: bovine aortic endothelial cells (BAEC)
Test: Evaluation of NO production in fixed cells (DAF-2 DA fluorescence)
Type: cell-based
Conditions: inhibitor added 30 min before DAF-2 DA loading
Protocol: Bovine aortic endothelial cells (BAEC) in primary culture (Cell Applications, San Diego, Calif.) were grown in EBM (Endothelial Basal Medium) containing EGM-MV supplements (Endothelial Growth Medium-Micro Vascular; Cambrex, Walkersville, Md.) and used between passages 3 and 5 as previously described (Formoso et al., Mol Endocrinol, 20:1153-63, 2006). […] Biol. Chem. 282:13736-45, 2007; Formoso et al., Mol. Endocrinol. 20:1153-63, 2006). Briefly, BAECs were grown to 95% confluence in Lab-Tek™ chamber slides (Rochester, N.Y.) and then serum-starved overnight in phenol red-free EBM supplemented with L-arginine (100 μM). BAECs were loaded with DAF-2 DA (3 μM) for 20 minutes at 37° C. […] After loading with DAF-2 DA for 20 minutes, cells were washed with EBM at 37° C. and kept in the dark. Next, BAECs were treated with insulin (100 nM, 5 minutes), lysophosphatidic acid (LPA; 5 μM, 5 minutes), or hesperetin (10 μM, 10 minutes; Sigma). After treatment, cells were fixed in 4% paraformaldehyde (vol/vol) for 5 minutes at 4° C. Fixed cells were visualized using an Olympus IX81 inverted microscope with attached CCD camera (Retiga Exi, Burnaby, BC, Canada) using appropriate filters with a peak excitation wavelength of 480 nm and a peak emission wavelength of 510 nm. Images were captured using IPLab™ Software (Scanalytics, Inc., Fairfax, Va.).

## COC[C@H]1OC(=O)c2coc3c2[C@@]1(C)C1=C(C3=O)[C@@H]2CCC(=O)[C@@]2(C)C[C@H]1OC(C)=O [wortmannin]
Hesperetin 10 μM, 10 min
  NO production in response to hesperetin after inhibitor pre-treatment: inhibited
Insulin 100 nM, 5 min
  NO production in response to insulin after inhibitor pre-treatment: inhibited
